This is an account of results in the RNAGym collection of RNA variant scans (doi:10.1126/science.aae0568).

Variants at the floor of the assay are shown more often than the library holds them.

The chains are these.
B1: tRNA (parent)
chain: GUUCCGUUGGCGUAAUGGUAACGCGUCUCCCUCCUAAGGAGAAGACUGCGGGUUCGAGUCCCGUACGGAACG

Variants of B1 are the subject of this data set. The experiment in a line: yeast fitness relative to wild type (ratio to wild type); higher = fitter; tRNA-Arg(CCU), competitive growth, 37 C, YPD. In a few lines:
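Genotype frequency changes were the basis for Darwinian fitness relative to wild type. The frequencies came from 100-nucleotide paired-end sequencing of gene amplicons from the start population and each end population of pooled yeast strains with tRNA-Arg(CCU) gene variants at the native locus. Competition ran in YPD at 37°C for 24 hours in six replicates, genotypes needed ≥ 100 starting reads, and estimates < 0.5 were set to 0.5.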
For GUUCCGUUGGCGUAAAGGUAAAGGGUCUCCCUCCUAAGGAGAAGACUGCGGGUUCGAGUCCCAUACGGAACG, the yeast fitness was ≤ 0.5.

Turning to GUUCCGUUGGCGUAAUGCUAACGCGUCUCCAUCCUAAGGAGAAGACUGCGGGUUCGAAUCGCGUACGGAACG, the yeast fitness was ≤ 0.5.

On to GUUCCGUUGGCGCAAUGGUAACGCGUCUGCCUCCUAAGGCGCAGACUGCGGGUUCGAGUCCCGUACGGAUCG, for which the yeast fitness is ≤ 0.5.

In the case of GUUCCGUUGGCGUAAUGGUAACUUGUCUCCCUCCGAAGGAGAAGACUGCGGGUUCGAGUCCCGUACGGAACG, the yeast fitness was ≤ 0.5.

As for GUUCAGUUGGCGUAAUGGUAACGCGUCUCCCUCCUAAGGAGAAGACUGCGGGUUCGAGUACCGUACGGAACG, the yeast fitness is 0.651.

On to GUUCCGUAGGCGUAAUGGUAACGCGUCUCCCUCCUAACGAGAAGACUGCGGGUUCGAGUCACGUACGGAACG, for which the yeast fitness is ≤ 0.5.

Take GUUCCGUUCGCGUCAUGGUAAGGCGUCUCCCUCCUAAGGAGAAGACUGCGGGGUCCAGUCCCGUACGGAACG: the yeast fitness was ≤ 0.5.

Consider GCUCCGUUGGCGUAAUGGAAACGCGCCUCCCUCCUAAGGAGAAGCCUGCGGCUUCGAGUCCCGUACGGAACG, for which the yeast fitness is ≤ 0.5.

Turning to GUUCCGUUGGCGUAAUGGUAACGCGUCUCCCUCCAAAGGAGCAGAUUGCGGGUUCGAGUCCCGUAUCGAACG, the yeast fitness was ≤ 0.5.

For the variant GUUCCGUUGGCGUAAUAGUAAAGCGUCUCCAUACUAAGGAGAAGACUGAGGGUUCGAGUCCCGUACGGAACG, the yeast fitness was found to be 0.573.

Consider GUUCCGUUGGCGUAAUGGUAACGCGUCUCCCUCCUACGGAGAAGACUGAGGGUUCGAGUCCCGUACGGAACG, for which the yeast fitness worked out at 0.651.

On to GUUGCGUUGGCGUAAUGGUAACGCGUUUCCCUCCUAAGGAGAAGCCUCCGGGUUCGAGUCGCGUACGGAACG, for which the yeast fitness is ≤ 0.5.

Consider GUUCCGUUGGCGUAAUGGUAACGCGUCUCCCUCCUAAGGAGAAGACGGCGCGUUCGAGUCCCGUACGGAACG, for which the yeast fitness was ≤ 0.5.

Regarding GUUCCGUUGGCGUAAUGGUACCGCCGCUCCCUCCUAAGGAGAAGACUGCGGGUUCGAGUCCAGUACGGAACG, the yeast fitness is ≤ 0.5.

On to GUUCCGUUGGUGUAAUGGUAACGCGUCUCCCUCCUAAGGAGAAGACUGAGGGUUCGCGUCCCGUACGGAACG, for which the yeast fitness was ≤ 0.5.

GUUCCGUUGGCCUGAUGGUAAUGCGUCUCCCUCCUAAGGAGAAGACUGCGGGUCCGAGUCUCGUACGGAACG: the yeast fitness was ≤ 0.5.

With GUUCCAUUGGCGUAAUGGUUACGCGUCUCCCUCCUAAGGAGAAGACUGCGGGUUCGAGUCCUGUGCGGAACG, the yeast fitness was ≤ 0.5.

With GUUCCGUUGGCGUAAUGGUAACGCGUCUCCCUCCUCAGGAGAAGACUGCGGGUUCGCGUCCCGUACGGAACG, the yeast fitness was ≤ 0.5.

As for GUCCCGUCGGCGUUAUGGUAACGCGUCUCCCUCCUAAGGAGAAGACUGCGGGUUCGAGUCCCGUACGGAACG, the yeast fitness was ≤ 0.5.

For GUUUCGUUGGCGUAAUGGCAACGCGUCUCCCUCAUAAGGAGAAGACUGCCGGUUCAAGUCCCGUACGGAACG, the yeast fitness is ≤ 0.5.

GUACAGUUGGCGUAAUGGUAACGCGUCUCCCUCCUAAGGAGAAGCCUGCCGGUUCGAGUCCCGCACGGAUCG: the yeast fitness was ≤ 0.5.

For the variant GUUCCGUUGGCGUAAUGGUAACGCGUCUCUCUCCUAAGGAGAGGGCUGCGGGUUCGAGUCCCGUACGGAACG, the yeast fitness is ≤ 0.5.

On to GAUCCGUUGGCGUAAUGGUAGCGCGUCUCCCUUCUAAGGAGAAGACUGCGCGUUCGAGUCCCGUACGGAACG, for which the yeast fitness is ≤ 0.5.

For GUUCCGUUGGCGUAAUGCUAAGGCGUCUCCUUCCUAAGGAGAAGACUGCGGGUUCGAGACCCAUACGGAACG, the yeast fitness is ≤ 0.5.

For the variant GUUCCGUUGGCGUAAUGGUAACGGGUCUCCCUCCUAAGGAGAAGACUGCGGGUUCGACUCCCGUACGAAACG, the yeast fitness was ≤ 0.5.

As to GUUCUGUUGGCGUAAUGGUAAUGCGUCUCCCUGCUAAGGAGAAGACUGCGGGUUGGAGUCCCGUACGGAACG, the yeast fitness was ≤ 0.5.

Turning to GUUGCGUUGGUGUAAUGGUAACGCGUCUCCCUCCUAAGGAGAAGACUGCGGGUUCGAGUGCCGUACGGAACG, the yeast fitness is ≤ 0.5.

On to GUUCCGUUGGCGUAAUGGUCACGCGUCGCCCUCCUAAGGAGAAGACUGCGGGUUGGAGUCCCGUACGGAACG, for which the yeast fitness is ≤ 0.5.

For GUUCAGUUGGCGUAAUCGUAACGCGUCUCCCUCCUAAGGAGAUGACUGCGGGUUCGAGUCCCGUACGGAACG, the yeast fitness was determined as 0.543.

In the case of GUACCGUUGGCGUAUUGGUAAGGCGUCUCCCUCCUAAGGAGAAGACUGCGGGUUCGAGUCCCGUACGGAACG, the yeast fitness is ≤ 0.5.

Turning to GUUCAGGUGGCGUAAUGGUAACGCGUCUGCCUUCUAAGGAGAACACUGCGGGUUCGAGUCCCGUACGGCACG, the yeast fitness was ≤ 0.5.

Take GGUCCGUUGGCGUAAUGGUAACGCGUCUCCCUCCUAAGGAGAAGACUCCGGCUUCGAGUCCCGUACGGAACG: the yeast fitness is ≤ 0.5.

With GUUCCGUUGGCGUAAUGGUAAAGCGUCUCCCUCCUAAGGAGAAGACUACGGGUUAGACUCCCGUACGGAACG, the yeast fitness was ≤ 0.5.

Take GUUCCGUUGGCGUAAGGGUAACGCGUUACCCUCCUAAGGAGAAGACUGCGGCUACGAGUCCCGUAUGGAACG: the yeast fitness is ≤ 0.5.

Take GUUCCGUUGGCGUAAUGGUAACGCGUCUCCCUGCUAAGGACACGACUGCGGGUUCGAGUCCCGUACGGAACG: the yeast fitness is ≤ 0.5.

Regarding GUUCGGUUGGCGUAAUGGUACCGCGUCUCCCUCCUAAGGAGAAGACUGCGGGUUCGAGUGCAGUGCGGAACG, the yeast fitness was ≤ 0.5.

On to GUUGCGUUGGCAUAAUGGUAACGCGUCGCCUUCCUAAGGAGAAGACUGCGGGUUCGAGUCCCGUACGGAACG, for which the yeast fitness was ≤ 0.5.
